Taken from: PubChem BioAssay AID1259254 (NCATS, 2017)
This is a random part of about 59,000 reagents. Over the whole deposit, about 1,550 (2.6%) were called active. 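G2 share is only a proxy for re-replication; each gene was hit by three separate siRNAs, and active genes were retested.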 The numbers tell different reagents against one gene apart. Not all columns of the deposit are shown. The record does not give: the amount of reagent.

Aim: 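Finding genes that stop cells copying their DNA twice in one cycle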 (primary screen)
System: human HCT116 colorectal cancer cells
Reagents: single siRNA against human genes
Time to read-out: 3 days
Read-out: 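Nuclei stained with Hoechst and imaged; cell-cycle phase assigned by DNA content; G2 share scaled per plate, non-targeting siRNA 0%, GMNN siRNA 100%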
Direction: G2 robust z-score and G2 cells, % of GMNN control: higher = more G2 cells, more excess DNA replication
Rule for the call: 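An siRNA counts as active if its G2 robust z-score lies at least 5 MADs above the screen median; here such calls match roughly 38% of GMNN control or more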

Knock-down of ZNF506 #1 came out at: G2 robust z-score -0.625; G2 cells, % of GMNN control -1.43; inactive.
Against ZNF506 #2 the deposit lists G2 robust z-score -0.636; G2 cells, % of GMNN control -1.51; inactive.
With knock-down of ZNF506 #3, the screen gave G2 robust z-score 2.9; G2 cells, % of GMNN control 23.4; inactive.
After knock-down of ARHGEF19 #1 the results were G2 robust z-score -1.17; G2 cells, % of GMNN control -5.25; inactive.
With knock-down of ARHGEF19 #2, the record shows G2 robust z-score 0.38; G2 cells, % of GMNN control 5.64; inactive.
Against ARHGEF19 #3 the deposit lists G2 robust z-score -0.428; G2 cells, % of GMNN control -0.0419; inactive.
For EDN2 #1 the deposit lists G2 robust z-score 0.018; G2 cells, % of GMNN control 3.09; inactive.
With knock-down of EDN2 #2 the results were G2 robust z-score 1.27; G2 cells, % of GMNN control 11.9; inactive.
EDN2 #3 showed G2 robust z-score 3.36; G2 cells, % of GMNN control 26.6; inactive.
For C22orf15 #1, the entry reads G2 robust z-score -0.808; G2 cells, % of GMNN control -2.72; inactive.
Depletion of C22orf15 #2 gave: G2 robust z-score 0.0624; G2 cells, % of GMNN control 3.41; inactive.
C22orf15 #3 showed G2 robust z-score -0.631; G2 cells, % of GMNN control -1.47; inactive.
KANK1 #1 scored G2 robust z-score 4.51; G2 cells, % of GMNN control 34.7; inactive.
Against KANK1 #2, the values are G2 robust z-score 0.829; G2 cells, % of GMNN control 8.8; inactive.
Against KANK1 #3, the entry reads G2 robust z-score -0.268; G2 cells, % of GMNN control 1.08; inactive.

Only “G2 robust z-score” (3 entries from above):
ZNF506 #3 = 2.9
ARHGEF19 #1 = -1.17
ARHGEF19 #2 = 0.38

Next reagents follow:
DMXL1 #1 scored G2 robust z-score 0.207; G2 cells, % of GMNN control 4.43; inactive.
Silencing of DMXL1 #2 came out at: G2 robust z-score 0.191; G2 cells, % of GMNN control 4.31; inactive.
With knock-down of DMXL1 #3 the results were G2 robust z-score 1.22; G2 cells, % of GMNN control 11.5; inactive.
After knock-down of ZNF587 #1 the results were G2 robust z-score -0.287; G2 cells, % of GMNN control 0.949; inactive.
For ZNF587 #2 the deposit lists G2 robust z-score -0.73; G2 cells, % of GMNN control -2.17; inactive.
Silencing of ZNF587 #3 gave: G2 robust z-score -0.639; G2 cells, % of GMNN control -1.53; inactive.
For RNF149 #1, the values are G2 robust z-score -1.21; G2 cells, % of GMNN control -5.56; inactive.
RNF149 #2 scored G2 robust z-score 0.274; G2 cells, % of GMNN control 4.89; inactive.
RNF149 #3 gave G2 robust z-score 0.4; G2 cells, % of GMNN control 5.78; inactive.
